Here are results for 34 compounds from the supplement of paper PMC3682954.

The experiment relates to RAW 264.7. Description: HMGB1-induced TNF-alpha production relative to HMGB1-stimulated control; higher = more TNF-alpha secretion (less inhibition). The note with it: stimulus: HMGB1 5 ug/ml, 18 h.
The mark [1] stands for this setting: compound concentration: 1 ug/ml.

Where a name gives a salt, the structure may show the parent alone. ± gives the standard deviation of the averaged measurements. This is one part of the list. Single values are uncertain, as repeats are few or missing.

Take `COc1ccc2[nH]c3c(c2c1)CCNC3` [6-Methoxy-1,2,3,4-tetrahydro-9H-pyrido[3,4b] indole]: the “HMGB1-induced TNF-alpha production” value (compound concentration: 3 uM) stood at 93.3%. On the same count and under the same terms, the same measure for `Cc1cccc(C)c1NC(=O)CN1CCCC1=O` [Nefiracetam]: 84.1%. On the same count and under the same terms, next, `CS(=O)(=O)Nc1ccc(Cc2noc(-c3ccc4[nH]cc(CCN)c4c3)n2)cc1`: 109%; `NC(=O)CI` [Iodoacetamide]: 69.3%; `C[C@]12CCC(=O)C=C1C=C[C@@H]1[C@@H]2CC[C@@]2(C)[C@H]1CC[C@@]2(O)CCC(=O)O`: 89.8%. On the same count and under the same terms, the same measure for `C[C@]12CCC(=O)C=C1C=C[C@@H]1[C@@H]2CC[C@@]2(C)[C@H]1CC[C@@]2(O)CCC(=O)O` [Canrenoic acid potassium salt]: 67.5%.

As for `S=C=NCc1ccccc1`, under “compound concentration: 3 uM”, the “HMGB1-induced TNF-alpha production” value amounted to 29.4 ± 17%. The same measure, in the same setting: next, `COP(=O)(OC)OC=C(Cl)Cl`: 85 ± 6.2%; `CN1CC[C@]2(CCN3CCc4c(oc5ccccc45)[C@@H]3C2)N(C)C1=O`: 109%; `N#CC(C#N)=Cc1ccc(O)c(O)c1` [Tyrphostin 23]: 105%. As for `CC(C)[C@H]1C(=O)N2CCC[C@H]2[C@]2(O)O[C@](NC(=O)[C@@H]3C=C4c5cccc6[nH]cc(c56)C[C@H]4N(C)C3)(C(C)C)C(=O)N12` [Ergocornine], under setting [1], the “HMGB1-induced TNF-alpha production” value was 54.2%. As to `CC(=O)N1C[C@@H]2C[C@H](C1)c1cccc(=O)n1C2`, the “HMGB1-induced TNF-alpha production” value under setting [1] is 77.9%.

In the case of `NC1=NC(=O)C(c2ccccc2)O1` (centres undefined) [Pemoline], the “HMGB1-induced TNF-alpha production” value (compound concentration: 3 uM) was 98%. With `CCOC(=O)C1(c2ccccc2)CCN(CCC(C#N)(c2ccccc2)c2ccccc2)CC1`, the “HMGB1-induced TNF-alpha production” value (compound concentration: 3 uM) was found to be 93.3%. On the same count and under the same terms, the same measure for `CC[C@@H]1C=CC=CC[C@H](C)[C@@H](O)[C@@H](C)C(=O)[C@H](C)[C@@H](O)[C@H](C)C(=O)[C@H](C)[C@@H](O)[C@H](C)C=CC(=O)O[C@H]2[C@@H](C)[C@@H](CC1)O[C@@]1(CC[C@@H](C)[C@@H](C[C@H](C)O)O1)[C@@H]2C`: 93.2%; for `CC(=O)[C@H]1CC[C@H]2[C@@H]3CC[C@H]4C[C@](C)(O)CC[C@]4(C)[C@H]3CC[C@]12C` [Ganaxolone]: 82.9%; for `CN1[C@@H]2C[C@@H](OC(=O)[C@H](CO)c3ccccc3)C[C@H]1[C@@H]1O[C@@H]12` [(-)-Scopolamine hydrobromide]: 110%.

On to `CN1[C@@H]2C[C@@H](OC(=O)[C@H](CO)c3ccccc3)C[C@H]1[C@@H]1O[C@@H]12`, for which the “HMGB1-induced TNF-alpha production” value (compound concentration: 3 uM) was 94.2%. The same measure, in the same setting: the same measure for `CN1[C@@H]2C[C@@H](OC(=O)[C@H](CO)c3ccccc3)C[C@H]1[C@@H]1O[C@@H]12` [Scopolamine hydrochloride]: 112%. The same measure, in the same setting: next, `CN1[C@@H]2C[C@@H](OC(=O)[C@H](CO)c3ccccc3)C[C@H]1[C@@H]1O[C@@H]12` [Scopolamine]: 97.5%; `C#C[C@]1(O)CC[C@H]2[C@@H]3CCC4=CC(=O)CCC4=C3C=C[C@@]21CC` [Gestrinone]: 104 ± 8.2%; `CN[C@@H](C)[C@@H](O)c1ccccc1`: 87%. On the same count and under the same terms, the same measure for `[O-][n+]1ccccc1[S-].[O-][n+]1ccccc1[S-].[Zn+2]`: 95.8%; for `CN1C[C@H](C(=O)N[C@]2(C)O[C@@]3(O)[C@@H]4CCCN4C(=O)[C@H](Cc4ccccc4)N3C2=O)C=C2c3cccc4[nH]cc(c34)C[C@H]21` [Ergotamine]: 87.6%. Regarding `CN1C[C@H](C(=O)N[C@]2(C)O[C@@]3(O)[C@@H]4CCCN4C(=O)[C@H](Cc4ccccc4)N3C2=O)C=C2c3cccc4[nH]cc(c34)C[C@H]21`, the “HMGB1-induced TNF-alpha production” value (compound concentration: 3 uM) was 82.9%.

As to `NCC(CC(=O)O)c1ccc(Cl)cc1` (racemic) [(±)-Baclofen], the “HMGB1-induced TNF-alpha production” value (compound concentration: 3 uM) was 68.5%.

As to `NCC(CC(=O)O)c1ccc(Cl)cc1` (racemic) [Baclofen (R,S)], the “HMGB1-induced TNF-alpha production” value (compound concentration: 3 uM) was found to be 91.1%. On the same count and under the same terms, the same measure for `N[C@@H]1C[C@H]1c1ccccc1` [Tranylcypromine hydrochloride]: 102 ± 3.4%. Turning to `CCCCCCC1C(=O)OC(C)C(NC(=O)c2cccc(NC=O)c2O)C(=O)OC(C)C1OC(=O)CC(C)C` (centres undefined) [Animicin A], under setting [1], the “HMGB1-induced TNF-alpha production” value came to 79.7%. For the compound `O=C1CC[C@@]2(O)[C@H]3Cc4ccc(O)c5c4[C@@]2(CCN3CC2CC2)[C@H]1O5`, the “HMGB1-induced TNF-alpha production” value (compound concentration: 3 uM) was determined as 93.3%. Turning to `O=C1CC[C@@]2(O)[C@H]3Cc4ccc(O)c5c4[C@@]2(CCN3CC2CC2)[C@H]1O5` [Naltrexone hydrochloride dihydrate], where the note is “compound concentration: 3 uM”, the “HMGB1-induced TNF-alpha production” value is 74%. Still for that read-out and setting: next, `O=C1CC[C@@]2(O)[C@H]3Cc4ccc(O)c5c4[C@@]2(CCN3CC2CC2)[C@H]1O5` [Naltrexone hydrochloride]: 125%. Regarding `O=C1CC[C@@]2(O)[C@H]3Cc4ccc(O)c5c4[C@@]2(CCN3CC2CC2)[C@H]1O5` [Naltrexone], the “HMGB1-induced TNF-alpha production” value (compound concentration: 3 uM) stood at 127%. Consider `NC(=O)c1cc([N+](=O)[O-])cc([N+](=O)[O-])c1`, for which the “HMGB1-induced TNF-alpha production” value (compound concentration: 3 uM) was determined as 89.5 ± 8.3%.
